Article PMC12236914
These are yes or no findings as the source states them, for the method shown. In cells and extracts the contact can be indirect.

Amino acid sequences for entries named in this document (tags omitted). A change or cut given only in a name is not applied to a line headed by its entry.
UniProt P39748: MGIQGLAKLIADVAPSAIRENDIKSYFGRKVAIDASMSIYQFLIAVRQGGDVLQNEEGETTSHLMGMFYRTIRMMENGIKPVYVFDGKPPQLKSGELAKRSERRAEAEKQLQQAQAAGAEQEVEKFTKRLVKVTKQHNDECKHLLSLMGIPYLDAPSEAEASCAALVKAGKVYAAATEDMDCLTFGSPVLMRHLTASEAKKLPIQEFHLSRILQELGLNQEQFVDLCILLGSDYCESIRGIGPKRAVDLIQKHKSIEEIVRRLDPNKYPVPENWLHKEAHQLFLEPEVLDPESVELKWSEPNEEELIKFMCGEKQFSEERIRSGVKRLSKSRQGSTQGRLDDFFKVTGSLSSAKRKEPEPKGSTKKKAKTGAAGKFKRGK
UniProt O15360: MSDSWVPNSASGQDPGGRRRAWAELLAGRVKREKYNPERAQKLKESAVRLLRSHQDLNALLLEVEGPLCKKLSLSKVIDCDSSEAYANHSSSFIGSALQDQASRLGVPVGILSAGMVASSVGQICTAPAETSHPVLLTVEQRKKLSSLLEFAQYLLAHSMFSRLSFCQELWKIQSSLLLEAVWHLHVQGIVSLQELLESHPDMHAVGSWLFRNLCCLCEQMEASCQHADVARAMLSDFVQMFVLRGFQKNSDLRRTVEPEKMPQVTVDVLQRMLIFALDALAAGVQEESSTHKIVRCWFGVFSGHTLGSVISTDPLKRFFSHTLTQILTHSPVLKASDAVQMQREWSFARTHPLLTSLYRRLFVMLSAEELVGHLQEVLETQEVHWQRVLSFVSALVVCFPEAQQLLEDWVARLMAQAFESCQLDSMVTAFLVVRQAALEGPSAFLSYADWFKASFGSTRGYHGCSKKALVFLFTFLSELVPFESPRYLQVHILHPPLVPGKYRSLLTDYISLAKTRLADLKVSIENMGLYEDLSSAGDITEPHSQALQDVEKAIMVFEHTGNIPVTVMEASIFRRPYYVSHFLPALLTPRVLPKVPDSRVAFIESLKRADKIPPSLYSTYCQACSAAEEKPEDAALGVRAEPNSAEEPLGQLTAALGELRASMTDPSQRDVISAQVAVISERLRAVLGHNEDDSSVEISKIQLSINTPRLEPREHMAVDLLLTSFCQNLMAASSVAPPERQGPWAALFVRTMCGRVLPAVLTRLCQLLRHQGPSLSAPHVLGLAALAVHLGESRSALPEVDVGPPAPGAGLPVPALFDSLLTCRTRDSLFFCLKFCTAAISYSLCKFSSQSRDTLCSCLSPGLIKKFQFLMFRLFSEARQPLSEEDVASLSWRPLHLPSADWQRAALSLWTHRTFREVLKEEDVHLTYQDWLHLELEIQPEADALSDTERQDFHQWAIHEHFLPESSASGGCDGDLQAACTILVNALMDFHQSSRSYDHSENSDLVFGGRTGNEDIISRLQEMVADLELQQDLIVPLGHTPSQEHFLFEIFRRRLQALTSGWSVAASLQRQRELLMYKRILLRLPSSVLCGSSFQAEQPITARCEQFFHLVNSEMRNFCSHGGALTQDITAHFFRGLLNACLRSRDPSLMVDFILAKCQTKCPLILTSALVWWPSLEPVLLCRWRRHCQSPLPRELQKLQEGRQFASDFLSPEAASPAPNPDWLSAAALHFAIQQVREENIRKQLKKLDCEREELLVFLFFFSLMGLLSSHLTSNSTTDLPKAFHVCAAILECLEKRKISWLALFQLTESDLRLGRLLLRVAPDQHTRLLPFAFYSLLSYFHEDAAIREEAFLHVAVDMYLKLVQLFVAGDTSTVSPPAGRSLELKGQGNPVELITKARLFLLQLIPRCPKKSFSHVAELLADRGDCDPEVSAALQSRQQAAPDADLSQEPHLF

Biological target: Flag-tagged FEN1 (UniProt P39748)
Experiment: co-IP; anti-Flag antibody to pull down Flag-tagged FEN1 from whole cell lysate, HA-tagged FANCA constructs (doxycycline-inducible), Western blot; NETN lysis buffer

| Substance | binding |
| --- | --- |
| FANCA ΔD4 mutant (from UniProt O15360) (domain or fragment) | no binding |
| FANCA ΔD5 mutant (from UniProt O15360) (domain or fragment) | no binding |
